According to patent US11077138B2, “Methods of tissue repair and regeneration” (INNOLIFE CO., LTD., priority 2015, dated 2021):

Assay: Copper concentrations in aortic rings after culturing
Design: species or system Sprague Dawley rats
Details: 8 days

Copper sulfide
copper concentration in aortic rings (5 μM added copper): 26 μg/g tissue | copper concentration in aortic rings (25 μM added copper): 63 μg/g tissue | copper concentration in aortic rings (50 μM added copper): 106 μg/g tissue | copper concentration in aortic rings (100 μM added copper): 162 μg/g tissue
